# Results from one PubChem assay

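Genome-wide siRNA knockdown in TC32 Ewing sarcoma cells, comparing luciferase light from an NR0B1-promoter reporter with a CMV-promoter reporter 48 hours after transfection.
Each siRNA was applied at 20 nM.
A z-score of the log NR0B1-over-CMV signal, less the median of siRNAs with the same seed; more negative means a stronger specific loss of the NR0B1 reporter.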

The strongest results of the screen are mostly left out here.
Sequences are the guide (antisense) strand, without overhang.

UUCUCCUUAGUGUUGCACG against FAM109A read seed-corrected z-score 0.06069. For UCAUCCUUGGGAUUUAGCU against PILRA the result was seed-corrected z-score -0.2827. For UUGCUAAAGAGCGAGGGCA against BLOC1S4 the result was seed-corrected z-score -0.1511. AAUGAGGCCAGAAAUACGC against HIST1H4D read seed-corrected z-score 0.6155. With UACCUUUCUCGCCUGUAGC against LRRC61 the assay gave seed-corrected z-score 0.9227. UUCCAUCCAAUCGAAUGUC against EPYC read seed-corrected z-score -0.1445. UAACAGACUAUAGUCCUUC against COIL gave seed-corrected z-score 0.2968. For AAUUCGUUUCUCGUAUUUC against OXCT2 the result was seed-corrected z-score 0.3309.

For UUCAUGAAAGCAUCGACAU against LSM10 the result was seed-corrected z-score 0.4901. UAAGCAUCGACUCCCUCUG against KDM2B read seed-corrected z-score -0.514. Result for UUUGGUUUAAUGAGGCGCG against CSK was seed-corrected z-score 0.1057. For UUCUGCACAUGAAACAUCU against ZFAND5 the result was seed-corrected z-score 0.1588. Result for UCCAUCUCAAACAUGGUGU against FSCN2 was seed-corrected z-score -1.161. AGAGGUGUUUGUGAGCUGC against TARP gave seed-corrected z-score -1.005. Result for UUCACACUGACCACUGUCU against TAF1C was seed-corrected z-score 0.3768. For UGACUUAUAAUUACCAGCU against SMIM15 the result was seed-corrected z-score -1.142.

Result for UUCUAUUCACAUUCGCUCC against ANKRD17 was seed-corrected z-score 1.866. For AAAGAUGACCUGCUCAGCG against PVRL2 the result was seed-corrected z-score 0.7312. UUUUGGGUAACAGGGUACC against RPS16P5 read seed-corrected z-score 0.02962. UCUCGCUGCACUUAUAUAG against UNC45A gave seed-corrected z-score -0.02509. UUAGGUGUAACUACAGUGG against OR5D13 gave seed-corrected z-score -0.4566. With UCCUGGAUGAUGAUUAGGG against ZSCAN4 the assay gave seed-corrected z-score -0.4803. AGAACUCCCAGAAUUUUAG against BMS1P5 read seed-corrected z-score 1.445. UCAAUUUGCAUAGAAUGCC against ANKRD34C gave seed-corrected z-score 0.6938.

For UCCAGAGCUCGUUUUCACG against EPS8L1 the result was seed-corrected z-score 0.4366. UUGAUAGUAAUGAUCUUGC against CXorf58 read seed-corrected z-score -0.8694. Result for UUUUAGACUUCGUUGAAAG against ABCA5 was seed-corrected z-score -0.7206. AAAGACAUCACGGAGCAAG against BID read seed-corrected z-score -0.2263. UCGUCUACCAUGAUCACUG against SLC24A3 read seed-corrected z-score -0.5108. Result for UGAAGAUUCACAAAUUCUC against RNF138 was seed-corrected z-score -0.836. UUGGAUUCGUUUGCUUUCC against TCEB3B gave seed-corrected z-score 1.261. Result for UACCUGUUUGGUUGGAAUC against SATL1 was seed-corrected z-score 0.5243.

UAAGCUGAAUGGAGGAACC against TRIM74 read seed-corrected z-score 0.6816. UCUUAAUGAAAUAUCAUGG against MRPS5 gave seed-corrected z-score 0.09414. UUAGAGUCUGAGUGUAUCC against VDAC1 gave seed-corrected z-score 1.769. UUUUAAUAAAUCCCGUUCC against PDE4D read seed-corrected z-score 0.3925. With UCGACUUUAACAGUCAUGG against TMEM181 the assay gave seed-corrected z-score -0.04032. UUCUUGAACGAUUCUAUUG against CLDN1 read seed-corrected z-score 0.3252. With UUAGCAUGCAUAAUGUCAG against CYP4F22 the assay gave seed-corrected z-score 0.1514. UUCCCUUCCGAGGAGUUGG against PIH1D1 read seed-corrected z-score -0.08609.

Result for AAACUUGUGAACCAGAGUC against TRIM16L was seed-corrected z-score 0.3361. UGUACUCAGAGGUUAUAGG against EFCAB5 gave seed-corrected z-score -0.4448. UCAAAGAUUAGCUCACAGG against IVD read seed-corrected z-score 0.2746. UUUGGAUCCACCCAGUAGG against COL27A1 read seed-corrected z-score 1.937. Result for UGUACUUCGAAGUUGAACU against TFAP2B was seed-corrected z-score -0.7454. Result for UCUCUUUCUGUAAUCAGUG against ZNF334 was seed-corrected z-score 1.755. With GUGGGUCUGAGAGAUUGGG against GP1BB the assay gave seed-corrected z-score 0.273. For UUACAUAAAUCAAUUUGGG against ANKRD37 the result was seed-corrected z-score 0.3854.

AAUAUAUCCUCCGUUCUUC against NPAS3 gave seed-corrected z-score -0.8906. UUGGUAGUUAGGGAUCGGU against MRPL40 read seed-corrected z-score 0.09839.

From PubChem BioAssay record AID1159506 (NCATS, 2015).